According to ChEMBL document CHEMBL4825722, “Discovery of Potent Selective Nonzinc Binding Autotaxin Inhibitor BIO-32546” (ACS Med Chem Lett, 2021):
Converted amounts (≈) assume the structure as drawn.

Key:
[1] = Solubility of the compound at pH 7.0 by shake flask method; settings: buffer
hERG (KCNH2) [2] = target: T1, hERG (KCNH2) (Homo sapiens, UniProt Q12809); test: Inhibition of human ERG at 10 uM by automated patch-clamp assay relative to control
hERG (KCNH2) [3] = target: T1, hERG (KCNH2); test: Inhibition of human ERG at 1 uM by automated patch-clamp assay relative to control
Autotaxin = Autotaxin (Homo sapiens, UniProt Q13822); test: Inhibition of human ATX assessed as reduction in LPA formation using FS-3 as substrate preincubated for 30 mins followed by substrate addition and measured after 2 hrs by FRET assay

| Compound | solubility thermodynamic [1] | inhibition at 10 µM (hERG (KCNH2) [2]) | inhibition at 1 µM (hERG (KCNH2) [3]) | IC50 (Autotaxin) |
| --- | --- | --- | --- | --- |
| C[C@@H](c1ccc2ccc(O[C@H]3CC[C@@H](C)CC3)c(C(F)(F)F)c2c1)N1C2CCC1CC(C(=O)O)C2 (some centres not stated) | 27 µg/mL (≈ 55.1 µM) | 21.9% | 2.2% | 1.4 nM |
| C[C@H](c1ccc2ccc(O[C@H]3CC[C@@H](C)CC3)c(C(F)(F)F)c2c1)N1C2CCC1CC(C(=O)O)C2 (some centres not stated) | – | 25.6% | 4.5% | 230 nM |
